Measurements: PubChem BioAssay AID504467 (National Center for Advancing Translational Sciences (NCATS), 2011)
Several values for one entry are separate records, joined by “and”; a condition that tells them apart may be missing. Equal values may be shown once. Screen size: about 330,000 compounds; about 7,700 (2.3%) were called active. The shares of active, inactive and inconclusive entries below differ from those in the screen. Calls follow the shape of the dose curve; as a rule, active = well fitted inhibition curve with a large enough effect; inconclusive = small, poorly fitted or top-dose-only effect, or effect the other way; inactive = flat fitted curve, though single readings scatter. Potencies beside an inconclusive call are fits to weak or partial responses and may not hold up.

Experiment: qHTS screen for small molecules that inhibit ELG1-dependent DNA repair in human embryonic kidney (HEK293T) cells expressing luciferase-tagged ELG1; also: nearly all actives have a fitted effect of over 55% in size
Settings: HEK293T ELG1-luciferase reporter, luminescence, 16 h, DNA damage induced by 5-fluorouridine; series mostly up to 46.1 µM
Procedure, shortened: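 Luminescence from the luciferase reporter, measured 30 min after ONE-Glo reagent at room temperature, was the read-out. Beforehand, 2,000 cells per well were exposed for 16 hr at 37 °C to 5-fluorouridine together with compound or vehicle.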
Potency is read from the fitted curve at half-maximal effect.

Row | SMILES | Potency
1 | CCN(CC(=O)Nc1ccc(OC)cc1)C(=O)c1ccc(N2CCCC2=O)cc1 | inactive
2 | Cc1sc2ncnc(N3CCC(C(=O)Nc4nnc(CC(C)C)s4)CC3)c2c1C | inactive
3 | CCCCNS(=O)(=O)c1ccc2nc(-c3cccs3)cc(C(=O)NCC(OC)OC)c2c1 | inactive
4 | CC(=O)c1sc(N/N=C\c2ccc(C)cc2)nc1C | inconclusive: 4.11 µM [activator, full curve]
5 | CC(C(=O)Nc1ccccc1)N(C)CCOc1ccc(Br)cc1 (stereo not given) | inconclusive: 20.6 µM [inhibitor, single point]
6 | CCn1c(SCCOc2ccc(Cl)cc2)nnc1-c1cccs1 | inactive
7 | COC(=O)c1ccc(NC(=O)CN2CCN(c3cccc(Cl)c3)CC2)cc1 | inconclusive: 20.6 µM [inhibitor, single point]
8 | Cc1ccc(COC(=O)CN2C(=O)NC3(CCCCC3C)C2=O)cc1 (stereo not given) | inactive
9 | Cc1ccccc1CNc1ccc(C(CC(N)=O)NC(=O)c2ccccc2)cc1[N+](=O)[O-] (stereo not given) | inconclusive: 20.6 µM [inhibitor, partial curve]
10 | CCOc1c(C)cc(-c2ncccc2O)cc1C | inconclusive: 25.9 µM [activator, single point] and inconclusive: 14.1 µM [activator, single point]
11 | COc1ccc2nc(NCc3ccccc3)[nH]c2c1 | inconclusive: 14.6 µM [activator, partial curve, poor fit]
12 | Cc1cc2c(cc1C)C(c1cccc([N+](=O)[O-])c1)CC(=O)N2 (stereo not given) | inactive
13 | Cc1cccnc1NC(=S)Nc1ncccc1C | inconclusive: 9.2 µM [activator, partial curve]
14 | Cc1nc2ccccc2nc1N1CCOCC1 | inconclusive: 20.6 µM [activator, single point]
15 | COc1ccc(-c2nn(C)c(=O)c3ccccc23)cc1CNC(=O)NC1CCCCC1 | inconclusive: 18.3 µM [inhibitor, partial curve]
16 | S=c1[nH]nc(-c2cc(-c3ccccc3)n[nH]2)n1/N=C/c1ccccc1 | inconclusive: 16.4 µM [activator, partial curve, poor fit]
17 | CCCCOC(=O)CCCN1C(=O)/C(=C2\SC(=S)N(CCCC(=O)OCCCC)C2=O)SC1=S | inactive
18 | CC(=O)N1CCN(c2ccc(NC(=O)c3ccccc3C)cc2)CC1 | inconclusive: 0.0183 µM [inhibitor, full curve, poor fit]
19 | CCCCC(=O)NNC(=S)NC(=O)CCC | inconclusive: 29.1 µM [activator, single point]
20 | CCNC(=O)CSc1nc2ccccc2c(=O)n1-c1cccc(OC)c1 | inactive
21 | Cc1nnc(-n2ncc(C#N)c2N)c2nn(-c3cccc(Cl)c3)c(C)c12 | inconclusive: 11.6 µM [inhibitor, partial curve]
22 | CN(CC(=O)Nc1cccc(F)c1)C(=O)CSc1ccccc1 | inactive
23 | CCOC(=O)C1CCN(C(=O)CSc2ccccc2)CC1 | inconclusive: 4.61 µM [activator, single point]
24 | COc1ccc(Cc2noc(CN(C)C3CC(C)(C)NC(C)(C)C3)n2)cc1OC | inactive

Row | SMILES | Potency
25 | COc1ccc(NC(=O)COc2cccc(-n3cnnn3)c2)cc1Cl | inconclusive: 29.1 µM [activator, single point]
26 | O=[N+]([O-])c1cc(S(=O)(=O)NCCN2CCOCC2)ccc1Cl | inactive
27 | OC(CN=c1sc2ccccc2n1CC(O)COc1ccccc1)COc1ccccc1 (stereo not given) | active: 20.6 µM
28 | O=C(NCc1ccco1)Nc1ccc2snnc2c1 | inconclusive: 6.51 µM [activator, partial curve, poor fit]
29 | O=C(Nc1ccn(Cc2ccc(F)cc2)n1)c1ccncc1 | inconclusive: 10.3 µM [inhibitor, partial curve, poor fit]
30 | O=C(CCC(=O)c1ccc(Cl)cc1)OCn1nnc2ccccc2c1=O | inconclusive: 18.3 µM [activator, single point]
31 | CCOC(=O)C1(CCOc2ccccc2)CCN(Cc2ccc(OC)c(O)c2)CC1 | inconclusive: 20.6 µM [inhibitor, partial curve, poor fit]
32 | Cc1cc(C)n2nc(C(=O)OCC(=O)N(CC(C)C)C3CCS(=O)(=O)C3)nc2n1 (stereo not given) | inconclusive: 14.6 µM [activator, partial curve, poor fit]
33 | CC1CCN(S(=O)(=O)c2ccc(C(=O)N3CCN(c4ccccc4F)CC3)cc2)CC1 | inconclusive: 16.4 µM [inhibitor, single point]
34 | C=CCN1C(=O)c2ccc(C(=O)N(C)CC(=O)Nc3cccc(F)c3)cc2C1=O | inactive
35 | CCN(CC)S(=O)(=O)c1ccc(N2CCOCC2)c(NC(=O)c2ccc3c(c2)OCCO3)c1 | inconclusive: 20.6 µM [inhibitor, partial curve, poor fit]
36 | Cc1cc(C(=O)N2CCCC(C(=O)c3cccc(C(F)(F)F)c3)C2)n[nH]1 (stereo not given) | inactive
37 | Cc1cccc2c(=O)c(C(=O)N3CCCCCC3)c[nH]c12 | inconclusive: 5.8 µM [activator, single point]
38 | O=S(=O)(CCN1CCOCC1)c1ccc(Oc2ccc(S(=O)(=O)CCN3CCOCC3)cc2)cc1 | inconclusive: 5.17 µM [inhibitor, partial curve]
39 | COc1ccc(-c2nnc(SCC(=O)N(Cc3ccccc3)C(C)(C)C)o2)cc1OC | inactive
40 | CNc1ccccc1C(C)(C)c1cc(-c2cccc(Br)c2)no1 | active: 9.2 µM
41 | CC(=O)c1ccccc1OCCOc1ncnc2sccc12 | inactive
42 | COc1ccc(N=C(C)C2=C(O)c3ccccc3C2=O)cc1 | inconclusive: 1.64 µM [activator, full curve]
43 | CC(NCc1cccnc1)c1ccccc1 (stereo not given) | inactive
44 | Cc1c(C)n(C(=O)CN2CCN(c3ccccn3)CC2)c2ccccc12 | inactive
45 | COCCN1CCN(C(=O)c2cc(COc3ccc(F)cc3F)on2)CC1 | inactive
46 | CC(=O)Nc1ccc(NC(=O)Cc2sc(-c3cccnc3)nc2-c2ccc(C)cc2)cc1 | inconclusive: 14.6 µM [inhibitor, partial curve, poor fit]
47 | CCOC(=O)c1nnn(-c2nonc2N)c1CSc1nnc(N)s1 | inconclusive: 25.9 µM [inhibitor, partial curve, poor fit]
48 | O=C(NCc1nc2ccccc2[nH]1)C1=C[C@@H](c2ccc(Br)cc2)C[C@@H](OCCCCO)O1 | inconclusive: 16.4 µM [inhibitor, single point]

Random excerpt: 6 records from the list, in no set order.
Row | SMILES | Potency
35 | CCN(CC)S(=O)(=O)c1ccc(N2CCOCC2)c(NC(=O)c2ccc3c(c2)OCCO3)c1 | inconclusive: 20.6 µM [inhibitor, partial curve, poor fit]
27 | OC(CN=c1sc2ccccc2n1CC(O)COc1ccccc1)COc1ccccc1 (stereo not given) | active: 20.6 µM
26 | O=[N+]([O-])c1cc(S(=O)(=O)NCCN2CCOCC2)ccc1Cl | inactive
34 | C=CCN1C(=O)c2ccc(C(=O)N(C)CC(=O)Nc3cccc(F)c3)cc2C1=O | inactive
43 | CC(NCc1cccnc1)c1ccccc1 (stereo not given) | inactive
36 | Cc1cc(C(=O)N2CCCC(C(=O)c3cccc(C(F)(F)F)c3)C2)n[nH]1 (stereo not given) | inactive

Next records:

Row | SMILES | Potency
49 | Cc1ccc(OCCCn2cc(C#N)c3ccccc32)cc1 | inactive
50 | CC1=Nc2cc(C(=O)NCCCOC(C)C)ccc2Sc2ccccc21 | inconclusive: 5.17 µM [inhibitor, single point]
51 | Oc1ccc(-c2cn3ccccc3n2)cc1O | inconclusive: 18.3 µM [activator, partial curve]
52 | Cc1ccc(-c2noc(CCC(=O)NC3CC3)n2)cc1 | inconclusive: 20.6 µM [activator, single point]
53 | O=C(CCN1C(=O)c2ccccc2C1=O)NCCC1=CCCCC1 | inconclusive: 14.6 µM [activator, partial curve]
54 | Cc1ccccc1C(=O)NCC(c1ccco1)N1CCc2ccccc21 (stereo not given) | inconclusive: 25.9 µM [inhibitor, single point]
55 | O=C(O)Cn1cc(/C=C2/NC(=O)N(c3ccc(Cl)cc3)C2=O)c2ccccc21 | inactive
56 | C/C(=N\NC(=O)CC1N=C(Cc2ccccc2)NNC1=O)c1ccc(Br)cc1 (stereo not given) | inactive
57 | COc1ccccc1CNC(=O)C(=O)NCC1OCCN1S(=O)(=O)c1ccc(Br)cc1 (stereo not given) | inconclusive: 29.1 µM [inhibitor, single point]
58 | CN(C)CC/C=C1/c2ccccc2Sc2c(O)cc(Cl)cc21 | inconclusive: 20.6 µM [inhibitor, partial curve, poor fit]
59 | C/C(=N/NC(=O)c1cccc(C)c1)c1c(O)cc(C)oc1=O | inconclusive: 18.4 µM [activator, single point]
60 | COCCCN(C(=O)c1ccccc1)c1nc(-c2ccc(OC)cc2)cs1 | inconclusive: 10 µM [inhibitor, partial curve, poor fit]
61 | NC1=NC(=O)/C(=C/c2cn(Cc3ccccc3)c3ccccc23)S1 | inconclusive: 14.6 µM [activator, partial curve]
62 | CCn1c(=O)c2c(nc3n2CC(C)CN3CCc2ccccc2)n(C)c1=O (stereo not given) | inconclusive: 14.6 µM [inhibitor, partial curve]
63 | O=C(c1cccc(Cl)c1)N1CCN(c2ccccn2)CC1 | inactive
64 | N=c1oc2ccccc2cc1C(=O)N/N=C/c1ccccc1 | inconclusive: 29.1 µM [activator, single point]
65 | COc1ccc(C(=O)Nc2cccc(C(=O)N3CCN(C)CC3)c2)cc1 | inactive
66 | CCN(CC)C(=O)CSC1=C(C#N)C(c2ccco2)C(C(=O)OCCOC)=C(C)N1 (stereo not given) | inconclusive: 16.4 µM [inhibitor, single point]
67 | CC(=O)Nc1ccc(NC(=O)C(C)OC(=O)c2ccccc2C(=O)c2ccc(Cl)c([N+](=O)[O-])c2)cc1 (stereo not given) | inconclusive: 29.1 µM [inhibitor, single point]
68 | CCc1cc(C(=O)N2CCN(S(=O)(=O)c3cc(C)ccc3C)CC2)sc1C | inconclusive: 23.1 µM [inhibitor, partial curve, poor fit]
69 | CCNc1nc(NC(C)C)nc(N(n2cnnc2)S(=O)(=O)c2ccc(C)cc2)n1 | inconclusive: 23.1 µM [inhibitor, partial curve, poor fit]
70 | Cc1cc2cc(CN(Cc3ccco3)C(=O)NCc3ccccc3)c(=O)[nH]c2cc1C | inconclusive: 18.4 µM [inhibitor, single point]
